Experimental data as given in the supplement of paper PMC10735217.
Where a name gives a salt, the structure may show the parent alone. This is one part of the list. Single values are uncertain here, since repeats match poorly.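 The human kidney-derived cells carry a stably integrated construct of eight TEAD-binding elements driving luciferase, read by luminescence in a drug-repurposing library screen. A compound counts as a hit when its signal is more than five robust Z scores above the plate mean.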

System: HEK293A TEAD-LUC reporter
Test: TEAD-luciferase reporter activity (YAP activation), robust Z score vs plate; higher = stronger YAP/TEAD activation
Conditions: 24 h

| SMILES | TEAD-luciferase reporter activity (compound concentration: 200 nM) | TEAD-luciferase reporter activity (compound concentration: 2 uM) | TEAD-luciferase reporter activity (compound concentration: 10 uM) |
| --- | --- | --- | --- |
| CNCc1ccc(OC)c([C@]2(N3CCC[C@H]3c3ncco3)C(=O)N(S(=O)(=O)c3ccc(OC)cc3)c3ccc(Cl)cc32)c1 | active: 5.17 | inactive: -0.812 | inactive: 1.2 |
| CCCCNC1CCc2ncsc2C1 (configuration not stated) | inactive: 1.83 | inactive: -0.0768 | inactive: 0.864 |
| CSc1ccc(OCc2ncc([N+](=O)[O-])n2C)cc1 [fexinidazole] | inactive: -1.79 |  | inactive: 1.26 |
| CCOC(=O)COc1cccc(CCc2nc(-c3ccccc3)c(-c3ccccc3)o2)c1 | inactive: -0.0461 | inactive: 0.765 | inactive: 1.6 |
| O=C(O)CCSC(SCCC(=O)O)c1ccccc1CCCCCCCCc1ccccc1 | inactive: -0.0668 | inactive: -0.226 | inactive: -1.47 |
| CC(=O)OC[C@H]1O[C@@H](n2ncc(=O)[nH]c2=O)[C@H](OC(C)=O)[C@@H]1OC(C)=O | inactive: 2.15 | inactive: -0.595 | inactive: -0.859 |
| CC[C@H](C)[C@H](N)C(=O)N1CCC[C@H]1C(=O)N1CCC[C@H]1C(=O)O | inactive: -2.14 | inactive: 1.98 | inactive: 3.1 |
| CN(CCOc1ccc(Cc2sc(O)nc2O)cc1)c1ccccn1 [rosiglitazone maleate] | inactive: -0.241 | inactive: -2.07 | inactive: -0.305 |
| Cc1ccc(CCN2CCCCC23Cc2ccccc2CN(C(=O)CCCC(=O)O)C3)cc1 (configuration not stated) | inactive: 2 |  | inactive: 1.09 |
| CCCc1ncc(C[n+]2ccccc2C)c(N)n1 [Amprolium] |  | inactive: -0.00481 |  |
| CCCc1ncc(C[n+]2ccccc2C)c(N)n1 | inactive: 1.42 |  | inactive: -0.607 |
| CC1CC[C@@]2(OC1)OC1CC3C4CC[C@H]5C[C@@H](OC6OC(CO)C(OC7OC(CO)C(O)C(O)C7O)C(O)C6O)CC[C@]5(C)C4C(=O)[C@@H](O)[C@]3(C)C1[C@@H]2C (some centres not stated) | inactive: 0.0551 | inactive: -0.432 | inactive: 2.01 |
| CC1CC[C@@]2(OC1)O[C@H]1CC3[C@@H]4CC[C@H]5C[C@H](O[C@@H]6O[C@H](CO)[C@H](O[C@@H]7O[C@H](CO)[C@@H](O)[C@H](O)[C@H]7O)[C@H](O)[C@H]6O)CC[C@]5(C)C4CC[C@]3(C)[C@H]1[C@@H]2C (some centres not stated) [Tiqueside] | inactive: 0.133 | inactive: -0.957 | inactive: -0.761 |
| N[C@@H](CSCC(=O)N1CC([N+](=O)[O-])([N+](=O)[O-])C1)C(=O)NCC(=O)O | inactive: -0.507 | inactive: 0.14 | inactive: -0.299 |
| O=C(NCCN1CCC(n2c(O)nc3cc(Cl)ccc32)CC1)c1ccc(F)cc1 [Halopemide] | inactive: -1.97 | inactive: -1.43 | inactive: -1.45 |
| NC(=O)[C@@H]1CCCN1C(=O)[C@H](Cc1c[nH]cn1)NC(=O)c1cc(=O)[nH]c(=O)[nH]1 [orotirelin] | inactive: 1.76 | inactive: 1.36 | inactive: -0.726 |
| COc1ccc(CNC(=O)C2CCN(C(=O)c3ccc(-c4ccccc4OC)cc3)CC2)cc1 | inactive: -1.71 |  | inactive: -1.98 |

Full records as entered above:
CCCc1ncc(C[n+]2ccccc2C)c(N)n1 [Amprolium] is listed with TEAD-luciferase reporter activity (compound concentration: 2 uM): inactive: -0.00481
NC(=O)[C@@H]1CCCN1C(=O)[C@H](Cc1c[nH]cn1)NC(=O)c1cc(=O)[nH]c(=O)[nH]1 [orotirelin] is listed with TEAD-luciferase reporter activity (compound concentration: 200 nM): inactive: 1.76; TEAD-luciferase reporter activity (compound concentration: 2 uM): inactive: 1.36; TEAD-luciferase reporter activity (compound concentration: 10 uM): inactive: -0.726

More records follow:

| SMILES | TEAD-luciferase reporter activity (compound concentration: 200 nM) | TEAD-luciferase reporter activity (compound concentration: 2 uM) | TEAD-luciferase reporter activity (compound concentration: 10 uM) |
| --- | --- | --- | --- |
| CCCCN(Cc1ccccc1)Cc1ccco1 | inactive: -1.89 | inactive: 1.84 | inactive: 1.08 |
| Cc1onc(NS(=O)(=O)c2ccc(N)cc2)c1C [Sulfatroxazole] | inactive: -0.718 | inactive: 2.51 | inactive: -1.6 |
| C[C@@H]1O[C@@H](O[C@H]2C(=O)c3c(O)cc(O)cc3O[C@@H]2c2ccc(O)c(O)c2)[C@H](O)[C@H](O)[C@H]1O [Astilbin] | inactive: -1.13 | inactive: -0.874 | inactive: -0.0397 |
| CCCCOc1cc(C(N)=O)ccc1OC | inactive: -1.31 | inactive: 0.0885 | inactive: 1.52 |
| CN(C)c1cc(NC(=O)CNC(C)(C)C)c(O)c2c1C[C@H]1C[C@H]3[C@H](N(C)C)C(O)=C(C(N)=O)C(=O)[C@@]3(O)C(O)=C1C2=O [Tigecycline] | inactive: -1.9 | inactive: -1.03 | inactive: 2.32 |
| Cc1ccc2c(c1)c(-c1ccccc1)nn2CCCN(C)C | inactive: 0.686 | inactive: -0.0747 | active: 5.86 |
| CC(C)OC(=O)CNc1cccc(CN(Cc2ccc(-n3cccn3)cc2)S(=O)(=O)c2cccnc2)n1 | inactive: 2.87 | inactive: -0.401 | inactive: 0.252 |
| CC1(C)SCCN(S(=O)(=O)c2ccc(OCC#CCO)cc2)[C@H]1C(=O)NO [Apratastat] | inactive: -2.17 | inactive: -1.28 | inactive: 4.28 |
| CCc1c2c(nc3ccc(OCCCNC(=O)CNC(=O)CNC(=O)CN)cc13)-c1cc3c(c(=O)n1C2)COC(=O)[C@@]3(O)CC | inactive: 0.763 | inactive: -0.111 | inactive: -1.31 |
| COc1ccc2[nH]c(C)c(CC(=O)NO)c2c1 | inactive: 0.229 | inactive: -0.407 | inactive: 1.97 |
| O=C(NOC[C@H](O)CO)c1ccc(F)c(F)c1Nc1ccc(I)cc1F | inactive: -1.27 | inactive: -0.788 | inactive: -0.567 |
| CCCC(=O)O[C@]1(C(=O)CC)CC[C@H]2[C@@H]3CCC4=CC(=O)CCC4(C)[C@H]3[C@@H](O)CC21C (some centres not stated) | inactive: 0.301 | inactive: 2.52 | inactive: 2.62 |
| CN(C)C(=O)C(CCN1CCC(O)(c2ccc(Cl)cc2)CC1)(c1ccccc1)c1ccccc1 | inactive: -1.46 |  | inactive: -0.44 |
| CC(=O)NCCn1c(C)cc(C=O)c1C [Aloracetam] | inactive: -0.53 | inactive: -1.23 | inactive: -0.326 |
| CO/N=C(/OC(=O)c1ccc(C(=O)C(C)(C)C)cc1)c1ccc(C(=O)C(C)(C)C)cc1 | inactive: 0.197 | inactive: 3.22 | inactive: 0.147 |
| CCNC(=O)c1cnc2n1CCc1ccccc1C21CCNCC1 | inactive: 0.258 | inactive: -0.487 | inactive: -0.407 |
